This test addresses GST-tagged HIF-1α truncation: N-terminal region containing HLH (human). As to the kind of experiment: pull-down; GST-tagged HIF-1α truncations from E. coli on Glutathione Sepharose, incubated with 293T cell lysates containing HA-L3MBTL3 at 4 °C for 6 h; only the target purified.

Results are given in words; binding and its absence hold for the method and conditions named. Binding seen in cells or lysates may run through a third protein. Binding can be weak; no strength is given. Where a sequence is shown, tags or fusion partners need not be part of it.

B1: HA-L3MBTL3 (protein, UniProt Q96JM7 1-780)
chain: MTESASSTSGQEFDVFSVMDWKDGVGTLPGSDLKFRVNEFGALEVITDENEMENVKKATATTTWMVPTAQEAPTSPPSSRPVFPPAYWTSPPGCPTVFSEKTGMPFRLKDPVKVEGLQFCENCCQYGNVDECLSGGNYCSQNCARHIKDKDQKEERDVEEDNEEEDPKCSRKKKPKLSLKADTKEDGEERDDEMENKQDVRILRGSQRARRKRRGDSAVLKQGLPPKGKKAWCWASYLEEEKAVAVPAKLFKEHQSFPYNKNGFKVGMKLEGVDPEHQSVYCVLTVAEVCGYRIKLHFDGYSDCYDFWVNADALDIHPVGWCEKTGHKLHPPKGYKEEEFNWQTYLKTCKAQAAPKSLFENQNITVIPSGFRVGMKLEAVDKKNPSFICVATVTDMVDNRFLVHFDNWDESYDYWCEASSPHIHPVGWCKEHRRTLITPPGYPNVKHFSWDKYLEETNSLPAPARAFKVKPPHGFQKKMKLEVVDKRNPMFIRVATVADTDDHRVKVHFDGWNNCYDYWIDADSPDIHPVGWCSKTGHPLQPPLSPLELMEASEHGGCSTPGCKGIGHFKRARHLGPHSAANCPYSEINLNKDRIFPDRLSGEMPPASPSFPRNKRTDANESSSSPEIRDQHADDVKEDFEERTESEMRTSHEARGAREEPTVQQAQRRSAVFLSFKSPIPCLPLRWEQQSKLLPTVAGIPASKVSKWSTDEVSEFIQSLPGCEEHGKVFKDEQIDGEAFLLMTQTDIVKIMSIKLGPALKIFNSILMFKAAEKNSHNEL
B1: the binding entry is recorded as “binds”.

The values above are taken from article PMC9898070.
